From the supplement of paper PMC11732987, “Enantioselective OTUD7B fragment discovery through chemoproteomics screening and high-throughput optimisation” (Communications Chemistry, 2025)
This is one part of the list. The data scatter; read single values as rough.

By UniProt entry, the sequences of proteins in these tests, tags left out. Where a name states a change or a piece, a line headed by the entry shows the natural chain unless it says otherwise.
UniProt O75164: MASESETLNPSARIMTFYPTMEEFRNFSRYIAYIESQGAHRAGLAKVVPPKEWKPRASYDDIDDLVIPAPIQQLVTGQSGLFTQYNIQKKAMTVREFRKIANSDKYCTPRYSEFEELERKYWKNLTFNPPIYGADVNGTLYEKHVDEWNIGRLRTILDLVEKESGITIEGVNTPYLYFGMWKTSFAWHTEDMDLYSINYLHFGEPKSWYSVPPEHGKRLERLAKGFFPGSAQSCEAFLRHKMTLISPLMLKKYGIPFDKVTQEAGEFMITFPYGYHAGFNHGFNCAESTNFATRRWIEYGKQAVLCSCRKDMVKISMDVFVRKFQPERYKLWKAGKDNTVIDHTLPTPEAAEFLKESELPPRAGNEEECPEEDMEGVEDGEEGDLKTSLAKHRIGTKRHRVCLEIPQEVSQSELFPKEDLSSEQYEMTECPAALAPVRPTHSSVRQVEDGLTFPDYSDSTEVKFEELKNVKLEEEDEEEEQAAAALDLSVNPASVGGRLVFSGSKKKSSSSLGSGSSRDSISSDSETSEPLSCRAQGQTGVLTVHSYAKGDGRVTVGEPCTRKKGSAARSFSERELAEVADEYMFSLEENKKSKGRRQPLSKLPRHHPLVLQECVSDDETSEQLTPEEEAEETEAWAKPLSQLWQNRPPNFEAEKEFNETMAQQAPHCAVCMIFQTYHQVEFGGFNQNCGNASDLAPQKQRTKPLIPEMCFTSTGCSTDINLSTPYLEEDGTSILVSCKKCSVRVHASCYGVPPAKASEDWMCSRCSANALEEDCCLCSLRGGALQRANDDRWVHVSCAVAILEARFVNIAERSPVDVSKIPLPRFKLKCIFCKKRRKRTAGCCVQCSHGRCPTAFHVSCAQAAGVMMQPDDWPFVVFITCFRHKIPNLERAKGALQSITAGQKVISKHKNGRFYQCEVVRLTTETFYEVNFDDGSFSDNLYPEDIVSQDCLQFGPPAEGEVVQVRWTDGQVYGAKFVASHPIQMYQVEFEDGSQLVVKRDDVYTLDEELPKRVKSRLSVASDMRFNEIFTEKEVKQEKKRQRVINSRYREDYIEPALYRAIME
UniProt Q02241: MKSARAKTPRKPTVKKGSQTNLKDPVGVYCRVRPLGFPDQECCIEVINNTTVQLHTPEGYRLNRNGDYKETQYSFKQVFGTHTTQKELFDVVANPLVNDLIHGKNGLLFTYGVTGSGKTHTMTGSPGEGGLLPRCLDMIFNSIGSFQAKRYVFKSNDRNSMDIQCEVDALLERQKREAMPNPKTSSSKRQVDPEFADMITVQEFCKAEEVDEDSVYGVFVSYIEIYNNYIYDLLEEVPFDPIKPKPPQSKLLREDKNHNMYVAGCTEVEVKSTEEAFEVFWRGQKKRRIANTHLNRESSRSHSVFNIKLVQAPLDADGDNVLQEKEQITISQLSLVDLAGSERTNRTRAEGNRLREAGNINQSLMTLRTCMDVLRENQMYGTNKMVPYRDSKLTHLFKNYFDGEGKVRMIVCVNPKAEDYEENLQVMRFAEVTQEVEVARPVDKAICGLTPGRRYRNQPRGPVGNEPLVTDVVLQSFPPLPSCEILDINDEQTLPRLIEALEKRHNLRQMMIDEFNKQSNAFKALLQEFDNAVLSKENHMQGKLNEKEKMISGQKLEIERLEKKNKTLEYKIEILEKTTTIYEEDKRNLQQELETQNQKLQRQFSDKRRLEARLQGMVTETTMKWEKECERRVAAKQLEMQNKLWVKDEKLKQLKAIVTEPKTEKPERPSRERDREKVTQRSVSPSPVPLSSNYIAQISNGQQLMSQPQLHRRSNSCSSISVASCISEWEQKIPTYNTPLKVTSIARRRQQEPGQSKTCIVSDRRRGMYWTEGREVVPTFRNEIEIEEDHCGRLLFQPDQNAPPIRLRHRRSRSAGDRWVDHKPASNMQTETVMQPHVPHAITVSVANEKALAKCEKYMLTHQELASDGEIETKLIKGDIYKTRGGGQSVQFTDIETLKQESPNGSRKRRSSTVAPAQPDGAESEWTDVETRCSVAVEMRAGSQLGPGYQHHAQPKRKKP
UniProt Q06136: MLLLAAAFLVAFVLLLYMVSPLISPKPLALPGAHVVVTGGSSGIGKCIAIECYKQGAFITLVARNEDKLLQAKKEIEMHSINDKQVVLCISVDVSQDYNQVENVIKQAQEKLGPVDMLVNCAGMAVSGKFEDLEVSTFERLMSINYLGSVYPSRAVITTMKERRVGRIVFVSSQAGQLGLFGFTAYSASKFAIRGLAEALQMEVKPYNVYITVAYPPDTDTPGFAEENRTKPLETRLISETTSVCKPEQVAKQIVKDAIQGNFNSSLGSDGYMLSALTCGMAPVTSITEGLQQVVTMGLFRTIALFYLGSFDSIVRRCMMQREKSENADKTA
UniProt O00180: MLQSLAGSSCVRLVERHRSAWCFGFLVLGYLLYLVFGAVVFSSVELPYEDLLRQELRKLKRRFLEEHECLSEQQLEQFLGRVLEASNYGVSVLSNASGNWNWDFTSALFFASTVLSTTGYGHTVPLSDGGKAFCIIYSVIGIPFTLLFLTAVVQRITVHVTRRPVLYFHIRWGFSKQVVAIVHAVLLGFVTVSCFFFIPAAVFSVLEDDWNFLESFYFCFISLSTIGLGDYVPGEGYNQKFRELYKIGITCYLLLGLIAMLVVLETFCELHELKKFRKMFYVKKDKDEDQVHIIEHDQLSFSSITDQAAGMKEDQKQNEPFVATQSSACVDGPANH
UniProt Q9Y597: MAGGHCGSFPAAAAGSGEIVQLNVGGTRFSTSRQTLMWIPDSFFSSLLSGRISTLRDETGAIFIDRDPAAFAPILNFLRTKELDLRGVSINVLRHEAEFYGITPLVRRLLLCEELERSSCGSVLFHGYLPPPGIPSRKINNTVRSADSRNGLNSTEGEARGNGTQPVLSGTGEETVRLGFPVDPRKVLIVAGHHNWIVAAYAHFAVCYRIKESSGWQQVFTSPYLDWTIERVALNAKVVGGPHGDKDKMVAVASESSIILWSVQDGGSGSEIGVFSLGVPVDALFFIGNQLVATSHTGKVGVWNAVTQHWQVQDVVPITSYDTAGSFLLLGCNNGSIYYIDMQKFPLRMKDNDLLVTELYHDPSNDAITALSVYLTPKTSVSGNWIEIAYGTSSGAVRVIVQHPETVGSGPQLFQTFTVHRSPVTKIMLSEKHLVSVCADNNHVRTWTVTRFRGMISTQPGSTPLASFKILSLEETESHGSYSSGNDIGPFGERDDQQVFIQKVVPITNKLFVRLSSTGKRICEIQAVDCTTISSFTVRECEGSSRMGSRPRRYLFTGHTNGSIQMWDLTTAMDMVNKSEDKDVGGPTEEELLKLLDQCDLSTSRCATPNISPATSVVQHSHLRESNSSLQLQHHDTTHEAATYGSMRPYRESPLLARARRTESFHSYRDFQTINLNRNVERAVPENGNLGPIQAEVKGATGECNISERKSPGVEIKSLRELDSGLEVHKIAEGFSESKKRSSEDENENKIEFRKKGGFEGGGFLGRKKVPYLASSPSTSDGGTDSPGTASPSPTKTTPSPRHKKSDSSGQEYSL
UniProt Q15058: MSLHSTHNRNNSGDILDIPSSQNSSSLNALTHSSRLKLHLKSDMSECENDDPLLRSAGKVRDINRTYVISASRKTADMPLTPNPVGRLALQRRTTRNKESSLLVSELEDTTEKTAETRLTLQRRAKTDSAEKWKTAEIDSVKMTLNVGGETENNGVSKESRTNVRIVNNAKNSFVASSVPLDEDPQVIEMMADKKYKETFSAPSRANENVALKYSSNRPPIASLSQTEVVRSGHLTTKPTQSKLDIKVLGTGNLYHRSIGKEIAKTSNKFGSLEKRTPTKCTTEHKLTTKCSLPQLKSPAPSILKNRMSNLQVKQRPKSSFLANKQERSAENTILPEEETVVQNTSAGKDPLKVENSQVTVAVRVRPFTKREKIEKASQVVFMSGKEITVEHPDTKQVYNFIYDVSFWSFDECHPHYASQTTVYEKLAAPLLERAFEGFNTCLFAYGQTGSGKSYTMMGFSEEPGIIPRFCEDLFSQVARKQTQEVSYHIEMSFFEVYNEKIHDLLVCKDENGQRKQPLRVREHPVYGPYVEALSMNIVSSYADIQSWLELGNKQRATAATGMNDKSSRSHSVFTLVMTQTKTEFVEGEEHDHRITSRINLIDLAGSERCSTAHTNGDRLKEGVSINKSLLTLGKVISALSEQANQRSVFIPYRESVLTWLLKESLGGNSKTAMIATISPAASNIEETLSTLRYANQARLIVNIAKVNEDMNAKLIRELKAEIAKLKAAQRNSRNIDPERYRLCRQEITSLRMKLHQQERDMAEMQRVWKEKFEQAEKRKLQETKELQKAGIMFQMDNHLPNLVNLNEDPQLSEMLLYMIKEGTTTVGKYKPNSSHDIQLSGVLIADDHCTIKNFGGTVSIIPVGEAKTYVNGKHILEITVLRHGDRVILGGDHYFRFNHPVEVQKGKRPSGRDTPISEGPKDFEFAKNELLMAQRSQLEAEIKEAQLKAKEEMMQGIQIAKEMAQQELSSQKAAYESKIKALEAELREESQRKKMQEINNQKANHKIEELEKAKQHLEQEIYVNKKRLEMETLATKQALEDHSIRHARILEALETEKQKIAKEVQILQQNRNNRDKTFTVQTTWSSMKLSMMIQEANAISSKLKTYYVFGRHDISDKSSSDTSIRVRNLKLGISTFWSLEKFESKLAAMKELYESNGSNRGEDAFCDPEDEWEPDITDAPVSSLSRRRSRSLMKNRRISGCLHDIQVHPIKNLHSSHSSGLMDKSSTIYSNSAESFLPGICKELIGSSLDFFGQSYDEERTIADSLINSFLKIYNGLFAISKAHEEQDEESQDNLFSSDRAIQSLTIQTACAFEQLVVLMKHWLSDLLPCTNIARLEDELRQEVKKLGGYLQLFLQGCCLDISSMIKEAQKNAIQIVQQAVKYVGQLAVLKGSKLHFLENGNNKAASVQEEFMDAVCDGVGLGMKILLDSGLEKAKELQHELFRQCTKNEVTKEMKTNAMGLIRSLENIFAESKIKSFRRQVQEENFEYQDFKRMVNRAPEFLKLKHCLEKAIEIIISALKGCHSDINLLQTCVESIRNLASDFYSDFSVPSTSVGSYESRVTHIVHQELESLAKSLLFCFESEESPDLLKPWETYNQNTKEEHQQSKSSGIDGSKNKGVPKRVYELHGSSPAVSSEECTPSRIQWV
UniProt Q9Y4C1: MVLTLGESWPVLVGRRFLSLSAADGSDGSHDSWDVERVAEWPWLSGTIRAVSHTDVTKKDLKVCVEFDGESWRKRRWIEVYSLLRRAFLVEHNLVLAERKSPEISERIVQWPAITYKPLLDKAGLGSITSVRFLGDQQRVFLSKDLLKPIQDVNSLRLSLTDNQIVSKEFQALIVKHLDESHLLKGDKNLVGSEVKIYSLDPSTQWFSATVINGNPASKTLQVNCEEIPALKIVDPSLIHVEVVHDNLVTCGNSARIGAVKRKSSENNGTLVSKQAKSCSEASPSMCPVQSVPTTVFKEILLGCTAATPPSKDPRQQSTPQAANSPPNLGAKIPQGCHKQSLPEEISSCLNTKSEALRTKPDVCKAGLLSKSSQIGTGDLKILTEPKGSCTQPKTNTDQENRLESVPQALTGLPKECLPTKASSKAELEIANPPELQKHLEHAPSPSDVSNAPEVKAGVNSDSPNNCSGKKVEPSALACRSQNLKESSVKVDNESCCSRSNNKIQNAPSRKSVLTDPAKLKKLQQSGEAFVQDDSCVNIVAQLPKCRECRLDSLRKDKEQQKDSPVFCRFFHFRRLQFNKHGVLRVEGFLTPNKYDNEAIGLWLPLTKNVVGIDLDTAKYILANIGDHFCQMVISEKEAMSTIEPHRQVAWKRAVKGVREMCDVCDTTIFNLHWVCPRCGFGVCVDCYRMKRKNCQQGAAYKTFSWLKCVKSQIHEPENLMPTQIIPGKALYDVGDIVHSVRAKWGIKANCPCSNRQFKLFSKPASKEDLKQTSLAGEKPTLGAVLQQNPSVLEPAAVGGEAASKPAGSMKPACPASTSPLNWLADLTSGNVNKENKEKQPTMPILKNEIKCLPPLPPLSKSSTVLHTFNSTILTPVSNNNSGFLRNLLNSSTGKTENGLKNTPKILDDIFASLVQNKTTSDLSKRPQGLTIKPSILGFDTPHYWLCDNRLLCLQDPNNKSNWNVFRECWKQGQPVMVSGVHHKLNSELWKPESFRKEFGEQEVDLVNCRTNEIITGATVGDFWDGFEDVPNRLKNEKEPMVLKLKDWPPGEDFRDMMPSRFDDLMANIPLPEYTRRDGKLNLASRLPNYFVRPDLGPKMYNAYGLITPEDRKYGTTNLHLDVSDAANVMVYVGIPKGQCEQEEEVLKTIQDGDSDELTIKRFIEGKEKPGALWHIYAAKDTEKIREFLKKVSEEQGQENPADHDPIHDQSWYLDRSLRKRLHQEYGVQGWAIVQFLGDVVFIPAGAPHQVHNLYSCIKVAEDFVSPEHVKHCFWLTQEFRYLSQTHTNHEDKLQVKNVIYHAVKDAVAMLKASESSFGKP

compound: ClCC(=O)N[C@H]1CCCc2ccccc12; test: log2 mean competition ratio of IA-DTB cysteine labelling (DMSO/compound) (log2 ratio); higher = stronger cysteine engagement by compound; conditions: 200 µM; treatment time: 4 h; cell line lysate: HEK293T
Method: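 IA-DTB competitive cysteine chemoproteomics in HEK293T RIPA lysate. Lysates were treated with compound 29 or 30 at 50 or 200 µM for 4 h, then IA-DTB (500 µM, 1 h), trypsin-digested, NeutrAvidin-enriched and analysed by diaPASEF. Competition ratio = intensity DMSO / intensity compound (n=4 treated, n=64 DMSO); binding: mean log2 CR ≥ 1 and p ≤ 0.05 plus QC filters. Target is the cysteine site.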

| Target | log2 mean competition ratio |
| --- | --- |
| KDM4A C533 (UniProt O75164) | -0.0543 |
| KIF4A C1171 (UniProt O95239) | 0.103 |
| KIF23 C933 (UniProt Q02241) | 0.0343 |
| KIAA1958 C73 | 0.311 |
| KDSR C245 (UniProt Q06136) | -0.239 |
| KCTD20 C369 (UniProt Q7Z5Y7) | 0.119 |
| KIF21A C1144 | -0.314 |
| ITSN2 C1389 (UniProt Q9NZM3) | -0.373 |
| KCNK1 C69 (UniProt O00180) | -0.151 |
| KATNAL1 C7 (UniProt Q9BW62) | 0.413 |
| KCTD3 C599 (UniProt Q9Y597) | 0.109 |
| KIF14 C47 (UniProt Q15058) | -0.00573 |
| KCTD5 C25 (UniProt Q9NXV2) | 0.0773 |
| KDM3A C695 (UniProt Q9Y4C1) | 0.02 |
| JCAD C904 | 0.337 |
| KDM3A C390 (UniProt Q9Y4C1) | 0.105 |
| JKAMP C181 | -0.044 |
| KIF18A C9 | -0.114 |
| ITM2B C38 (UniProt Q9Y287) | -0.402 |
| KBTBD11 C99 (UniProt O94819) | -0.128 |

Part of the list above, with bars between the fields.
Target | log2 mean competition ratio
KCTD5 C25 (UniProt Q9NXV2) | 0.0773
KDM3A C695 (UniProt Q9Y4C1) | 0.02
